# Measurements taken from PubChem BioAssay AID1508600 (Functional Genomics Laboratory (NCATS/FGL), 2020).
# The whole screen tested about 53,000 sequences, of which about 3,700 (7%) were called active.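 The calls were made as follows: active = gene knockdowns whose robust z-score for IL-1 alpha signal is at least 2 or at most -2, so actives lie on both sides; inactive = the rest.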 Some of the results follow.
# Assay: Components of the Cytosolic LPS Sensing Pathway: Gene Identification via Genome-wide siRNA Screen;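 also: robust z of the log signal after scaling to non-targeting control siRNA wells of the plate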
# Details: RAW264.7 macrophages, IL-1a HTRF, actives lie on both sides, screened at 100 nM (by protocol), cells primed 5 h with Pam3CSK4 first
# Summary of the method: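 Read-out: IL-1a HTRF on supernatant, divided by plate negative-control median ×100, log-transformed and converted to robust z-score. Cells were RAW264.7 given 100 nM siRNA, Pam3CSK4-primed 5 hours, then LipidA-transfected 24 hour.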
row,Sequence,z-score
1,GGCAAGGACUCGAAGACUATT against 9630028B13Rik,inactive: 1.2
2,GUUCAUUUGUCAUCACUGUTT against Prss2,inactive: -1.28
3,GCAAUAGCAUACCUACCAUTT against Desi2,inactive: -0.228
4,GGGCAGUUCUCUUUGCCAATT against Gns,inactive: -1.15
5,CCAUUAAUAAAGCGUGGGUTT against Cacybp,inactive: 0.562
6,CCUAAACCCAUUCCAGUCUTT against Dpm3,inactive: 0.104
7,GGUGACUAUUAGAAGUAAATT against Gtf3c4,inactive: 1.18
8,CCUGACAUUCUUUAAUCCATT against Synb,inactive: 0.6
9,GAUAUUGCUCUCCAAUCUATT against 2310034C09Rik,inactive: -1.4
10,GAUAUAAGGACUCUUUGAATT against Glt28d2,inactive: -0.287
11,CCCACCAGUAAGGAGUUCATT against Dido1,inactive: -0.177
12,GCAUGCUGACAUUAAAGUGTT against Clca4a,inactive: 0.607
13,GGUAUGAGAUACCGGACACTT against Asic1,inactive: 1.77
14,GGCUAUCCUGGAAAAAGAGTT against Slc25a36,inactive: -1.13
15,GGACAUUGUCACAUCAUUCTT against Slc2a6,inactive: 1.64
16,GGCAAUGUUUACAAGUUCCTT against Ralgps1,inactive: 0.491
17,GGUGGGCAUCUGACAACAUTT against Set,inactive: 0.886
18,GAGUGGAUGGCUCAAAGGATT against Zfp691,inactive: 1.33
19,GGCUUUAGUUCUUUUGUAATT against Mmd,inactive: -0.936
20,GGAUAAAGCCACAUUUGGUTT against Apoh,inactive: -0.483
21,GCUACUUUAGUGGUUUCACTT against Ets1,inactive: 1.63
22,GCAAAAGGUUAAACUGAUATT against Fbxl14,inactive: -0.393

row,Sequence,z-score
1,GCUAUCCUCAAAAUUCCUUTT against Olfr412,inactive: -1.42
2,CGUAAGUUAUGUGUCUAAGTT against Fam207a,inactive: 0.588
3,GGAGGAUAGAUUUAUGUAUTT against Tmem241,inactive: -0.847
4,CGAAGGUACUAUGUAUUUUTT against Tbce,inactive: -0.12
5,GGUGCACACCAAUGUUCUGTT against Efemp2,active: 2.03
6,CCACUCCAACUAGUGUUAATT against Pcdha10,inactive: 1.65
7,CCACACUAACUUGUAAUUUTT against Rasgrp1,inactive: 0.778
8,GGGCCUUCUUCCUAAAUUUTT against Mat2a,inactive: 0.708
9,GCAAAGGGUUCCUGUACUUTT against Dnajc27,inactive: 0.668
10,GGACCAUUCUGGCUACUCATT against Ankrd34b,active: -2.17
11,GCAUCACAGAAACUGAGCATT against Pou6f2,inactive: -0.542
12,GGAGAUUCAGAAUUACUGATT against Krit1,inactive: -0.818
13,GGCAGUAAUCAACAAAUAGTT against Lrrtm4,inactive: 0.000329
14,CGAAAACAAUUACGUCUAUTT against Rfwd3,inactive: 1.15
15,GUAAGGUCACCGGGUUGCATT against Lor,inactive: 0.547
16,GGUGCUUCACAGAAUGUGUTT against Olfr784,inactive: -1.8
17,GGCGAUGCUUCUUCAGUACTT against Wdr54,inactive: 1.91
18,GGAUCUGUGCUCUGAGAAGTT against Acot11,inactive: 0.937
19,GGAAAAAAGAGAGGUCAGATT against Meox1,inactive: -1.02
20,CCACUGAUCCUUUGACAGCTT against Zfy2,inactive: 0.313
21,GCUUUAGUCAUUUGAACAUTT against Rap2c,inactive: 1.59
22,GGAUGAAAAGCUUAUUCGUTT against Ddx5,inactive: -1.3

row,Sequence,z-score
1,GGAAGAUUUCGAUAAGCUCTT against Cacna1h,inactive: 1.46
2,GAAUUCCAGCUUUUCCCUUTT against Klra22,inactive: 1.5
3,GCUCUACCGUUAAGUUAUUTT against Eif4e2,inactive: 0.499
4,GGAGGACGUAUCAUUACAUTT against Twf1,inactive: 1.95
5,CCACUUGAGUAUAAGCAAUTT against Zfp955a,inactive: 1.16
6,GGAAGCAUGUGAGAGAAAATT against C130026I21Rik,inactive: -1.03
7,CCAUUUACCUCAUAGGACCTT against Crb3,inactive: -0.239
8,GGCAACAGAGCUGACCCUATT against F630111L10Rik,inactive: 0.69
9,GCAGCUAGGUAAUAGGAAUTT against Nsg2,inactive: 1.51
10,CGCAGGUAUACCUUAAAGCTT against Paxbp1,inactive: 0.154
11,CCCAUGGCUACUUUGAAUCTT against Chmp2b,inactive: -0.328
12,GGAACUGUGGAAGGAAUUCTT against Tbx6,inactive: 0.116
13,GGUCGAUGCUUCGAAACCATT against 6820408C15Rik,inactive: -0.165
14,GCAAUUCUGCAAGUGAUUATT against Spata5l1,inactive: -0.776
15,GCCGGUCUAACUUUCCAAUTT against Ssbp3,inactive: 0.946
16,GAUCUAUCACCGGUACUGCTT against Gys1,inactive: 0.154
17,GCCGCACAUGCCUACAGAATT against Pagr1a,inactive: 0.795
18,CGCCUACAGCUCUAUCUUATT against 2700062C07Rik,inactive: 1.05
19,GGUAUUAGUCCACUUAGGATT against Mplkip,inactive: -0.0279
20,CCCUAAGUAAUAGAAGUGGTT against Coa4,inactive: -1.76
21,CUUAGCUACUUCAAGGUCATT against Spink8,inactive: 0.628
22,CGAUCCGAAUGGGUCGACUTT against Bola1,inactive: 0.896

# Three entries picked at random from those above:
row,Sequence,z-score
14,GCAAUUCUGCAAGUGAUUATT against Spata5l1,inactive: -0.776
8,GGCAACAGAGCUGACCCUATT against F630111L10Rik,inactive: 0.69
2,GAAUUCCAGCUUUUCCCUUTT against Klra22,inactive: 1.5

# Continuation.

row,Sequence,z-score
1,CCACAUCUUUGACGAGUACTT against Rgs16,inactive: -0.145
2,GCAUAUAAUGUCUAACUCGTT against Eml4,inactive: -0.0328
3,GGAACUAUUGAGUUGUUGUTT against Pcdha5,inactive: 0.15
4,CCCAAUAUUCAAGGAUAUATT against Grk4,inactive: 0.164
5,GGUGGUGUCUUCUGUGCAATT against Cd3d,inactive: 0.543
6,GGACUUGCAUUCUUAUGCUTT against Dipk2b,inactive: 0.769
7,GGAUAAUGCUUUAUGGGAATT against Ccdc70,inactive: 0.899
8,GAAUGCGAAGCCUUCCGCATT against Gfra4,inactive: 1.2
9,GGAAAAGCAUUUUCAACGUTT against Lhfpl2,inactive: -1.41
10,GCUCAAGUGCGAUUGUAAGTT against Arhgef10l,inactive: -1.11
11,GGAAAUCAGUGAACAUCUUTT against Tshr,inactive: 0.525
12,GGAGUAAAGACAUUCAGGATT against Nlrp4f,inactive: 0.716
13,GCAACCUUUUUACAACACCTT against Zfp935,inactive: -0.272
14,GGAUAAAGCCCAGUGAACCTT against Fam163b,inactive: 0.29
15,GGAUGUACGGAAGCGAUUCTT against Gmpr2,inactive: 0.404
16,GGUGGAGCUGCUCAAGAUUTT against Fkbp2,inactive: -0.733
17,GGUUUUAGGGUUUUUAACATT against Lpar2,inactive: 0.0242
18,GGAUGAGCAGAUGCUCCAATT against Mtmr7,inactive: 0.451
19,GCUCAAUGCAGAAGGACGGTT against Bpifa3,inactive: 0.432
20,GGCCCUUCCCAAAGUAUUATT against Mup3,inactive: -0.936
21,GGAAGAAAAUCUUGAAGCATT against Ddx51,inactive: -0.232
22,GCUAGUGAGUCGCUUGACUTT against Abcb8,inactive: 0.712

row,Sequence,z-score
1,GCUAAUAGCCUGCCUAAGGTT against Plekhj1,inactive: 1.35
2,GGGUGGAGUGAAAUACUUUTT against Fam83f,inactive: 0.728
3,GCAACUCGUACAAAAGGCGTT against Cnga1,inactive: -1.14
4,GGUGAGCAAGAACAAAAAGTT against Chil6,inactive: -0.71
5,GGUUACCUGUGAAAAUAGUTT against Zfp606,inactive: 1.54
6,GAAGCUGUUGCUACUGGACTT against Pth2,inactive: -0.408
7,GGACUUUUCUGCUAUUUACTT against Kcnh2,inactive: -0.471
8,GGCUAAAUAUUACCACUGATT against Dyrk3,inactive: -0.198
9,GGACAAAAGACAAAUACCGTT against Cdx2,inactive: -1.12
10,GGCUCUCUGAGGAUUCGAATT against 4930544M13Rik,inactive: -0.209
11,GGUUGGACAAAAAGAAUCUTT against Ifngr1,inactive: 0.507
12,CCUUGGACUAUGGCAAAAATT against Neurod6,inactive: 0.418
13,CCGUGCAACAAAAACUGGATT against Tnpo1,inactive: -1.08
14,CGCAUACUGUGGAAUAGUUTT against Spag4,inactive: -1.26
15,GGCUUUUAGUACUGAUAGUTT against Neu3,active: 2.6
16,GGAGAAAAGAGGCUUCCAGTT against Lad1,inactive: 0.754
17,CCUUCAAUCUUCCUAGUGATT against Bag6,inactive: -0.0397
18,CCAAUCUCCAGUUCAACAATT against Parp2,inactive: -0.215
19,GGCCUGAAGGGAAAGAUUUTT against Rbbp4,inactive: -0.721

# An excerpt taken from the entries so far:
row,Sequence,z-score
1,GCUAAUAGCCUGCCUAAGGTT against Plekhj1,inactive: 1.35
2,GGGUGGAGUGAAAUACUUUTT against Fam83f,inactive: 0.728
3,GCAACUCGUACAAAAGGCGTT against Cnga1,inactive: -1.14
4,GGUGAGCAAGAACAAAAAGTT against Chil6,inactive: -0.71
5,GGUUACCUGUGAAAAUAGUTT against Zfp606,inactive: 1.54
6,GAAGCUGUUGCUACUGGACTT against Pth2,inactive: -0.408
